# Experimental data: PubChem BioAssay AID504808 (Drosophila RNAi Screening Center, 2011)
# Assay: 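Fly genes required to hold E2F transcription in check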 (primary screen)
# Cell system: Drosophila S2 cells
# Reagent: long dsRNA against Drosophila genes
# Read-out: 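Firefly luciferase driven by E2F sites, normalised to Renilla luciferase on the same minimal promoter, measured by plate reader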
# Scale: E2F firefly: higher = more E2F reporter activity; Renilla normaliser: higher = more normaliser reporter signal
# Hit rule: 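Called active if the normalised E2F reporter went up by over 50%; the cutoff is arbitrary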
# The deposit covers about 21,000 reagents; shown is a random part of those with a known target gene and a result. In the full data, 18 (0.084%) were called active. 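Raw counts without plate normalisation, one of two replicates; the ratio scores behind the calls were not deposited.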 The numbers tell different reagents against one gene apart. Not given: the amount of reagent, the time to read-out.
Target gene,reagent no.,"E2F firefly, rep 1","Renilla normaliser, rep 1",activity call
CG17636,1,1.44e5,6469,inactive
CG34024 (retired record),1,94977,2626,inactive
ldbr,1,71721,4104,inactive
CG10859,1,91358,3632,inactive
Nf-YC,1,57326,3682,inactive
Rab30,1,1.45e5,5042,inactive
CG15283,1,1.01e5,3963,inactive
Fmo-2,1,80977,3610,inactive
CG18748,1,1.45e5,7690,inactive
FASN3,1,1.25e5,7180,inactive
CG33125,1,1.35e5,5277,inactive
Ctl1,1,96210,4350,inactive
Ugt37D1,1,99716,4284,inactive
Sod2,1,63890,3193,inactive
CG11030,1,1.42e5,5388,inactive
CG10226,1,72782,3618,inactive
CG2921,1,90769,3935,inactive
CG14561,1,1.47e5,6910,inactive
lin-28,1,1.08e5,4154,inactive
Cpr49Ab,1,1.44e5,5233,inactive

Only “Renilla normaliser, rep 1” (4 entries from above):
FASN3: 7180
CG33125: 5277
Ctl1: 4350
Ugt37D1: 4284

The listing continues:
Target gene,reagent no.,"E2F firefly, rep 1","Renilla normaliser, rep 1",activity call
GstE3,1,1.34e5,5248,inactive
Chchd2,1,2.48e5,8069,inactive
yuri,1,1.28e5,5522,inactive
yuri,2,1.33e5,4869,inactive
yuri,3,1.05e5,4426,inactive
yuri,4,88181,3821,inactive
CLS,1,1.09e5,5204,inactive
MED25,1,49355,3316,inactive
pds5,1,2709,183,inactive
CG7878,1,1.52e5,6840,inactive
CG7322,1,1.35e5,5282,inactive
CG7702,1,65365,2687,inactive
Cad96Cb,1,1.00e5,5972,inactive
Cad96Cb,2,1.03e5,5745,inactive
